Measurements from patent publication US20200362021A1.
Positions count from the first letter of the chain named. Results are given in words; binding and its absence hold for the method and conditions named.

T1: Biotin-APL27-14
T1 sequence (peptide, N-terminal biotin): GPGAWQGGRRKFRR

B1: anti-apelin mAb C17 (antibody, V domains shown)
VH: QSVEESGGRLVKPDETLTLTCAVSGIDLSSNAMNWVRQAPGEGLEWIGSMYTDGTTYYANWAKGRFTISRASSTTVDLKMTSLTAADTATYFCARGDIWGPGTLVTVSS
VL: QVLTQTASPVSAAVGGTVTISCQSSQSVYNNNWLAWFQQKPGQPPKRLIYGTSELASGVPSRFKGSGSGTQFTLTISGVQCDDAATYYCLGTYSSNIHVFGGGTEVVVK
B2: anti-apelin mAb C26 (antibody, V domains shown)
VH: QEQLEESGGGLVQPEGSLTLTCTASGFTLSNYWMSWVRQAPGKGLVWIGCIDIGSDDTYYASWAKGRFTISRTSSTTVTLQVTSLTAADTATYFCARSGGLWGPGTLVTVSS
VL: QVLTQTPSSTSAAVGGTVTINCQASQSVYNNNDLAWYQQKPGQPPKRLIYEASKLASGVPSRFSGSGSGTQFTLTISDLECDDAATYYCAGGWSGNFYVFGGGTEVVVK
B3: anti-apelin mAb C27 (antibody, V domains shown)
VH: QSVEESGGRLVTPGGSLTLTCTVSGIDLINAWMNWVRQAPGKGLEWIGTTTDDDTIYYANWAKGRFTISRTSTTVDLKVTSLTSEDTATYFCSKGRIWGPGTLVTVSL
VL: QVLTQTPASVSAAVGGTVTINCQASQSVYDGNWLCWYQQKPGQPPKRLIYKASTLESGVPSRFKGSGSGTQFTLTISDLECDDAATYYCQGGFTSNIYPFAGGTEVVVK
B4: anti-apelin mAb C4 (antibody, V domains shown)
VH: LEQSGGGAEGGLVKPGGSLELCCKASGFTLSSSYWICWVRQAPGKGLEWIGCIHYGSSGTAYYASWVNGRFTLSRDIDQSTGCLQLNSLTAADTAMYYCARFLSDMYYYNLWGPGTLVTVSS
VL: QVLTQTPASVSAAVGGTVTINCQASQSIYNNNQLSWYQQKPGQPPKLLIYYASTLASGVSSRFKGSGSGTQFTLTISGVQCDDAATYYCQGQFNCRSADCHAFGGGTEVVVK
B5: anti-apelin mAb C9 (antibody, V domains shown)
VH: QEQLEESGGDLVKPEGSLTLTCTASGFSFSSSYWICWVRQAPGKGLEWIACIYQSGDGRTWYASWAEGRFTISKTSPTTVTLQMASLTAADTATYFCARCPHNTYSHFDLWGPSTLVTVSS
VL: DIVMTQTPASVEAAVGGTVTIKCQASQSINSWLSWYQQKPGQPPKPLIYGASNLASGVPSRFKGSGSGTQFTLTISDLECADAATYSCLGYYYSSYNSVGFWAFGGGTEVVVK
B6: anti-apelin mAb C1 (antibody, V domains shown)
VH: QSLEESGGRLVTPGGSLTLTCTVSGFSLSSYAMDWVRQAPGKGLEWIGVIAPNGATYYPTWARGRFTISKTSTTVDLKMTSLTAADTATYFCATYPIDAGANIWGPGTLVTVSS
VL: DPVLTQTPSSVSAAVGGTVTIGCQSSESVDNNNQLSWYQQKSGQPPKRLMYYVSTLDSGVPSRFKGSGSGTHFTLTISGVQCYDAATYYCQGGYISNLYPFGGGTEVVVK
B7: anti-apelin mAb C6 (antibody, V domains shown)
VH: QSLEESGGRLVKPDETLTLTCTVSGIDLSNYAMDWVRQAPGKGLEWIGVIAPNRRTYYPTWARGRFTISKTSSTTVDLKMTSLTTEDTATYFCATYPIEPGANIWGPGTLVTVSS
VL: B6 VL with S10P, A14P, N31Y, S42P, H72Q, G79D, V80L, Q81E, Y83D, L98I
B8: anti-apelin mAb C5 (antibody, V domains shown)
VH: QSVEESGGRLVTPGTPLTLTCTVSGFSLSGAWMNWVRQAPGKGLEWIGVVSSDDNIYYADWAKGRFTISKTSTTVDLKLTSPTTEDTATYFCARNLGTIWGPGTLVTVSS
VL: QVLTQTESPVSAAVGGTVTINCQSSQSVWSNYLSWFQQKPGQPPKVLIYGTSKLPSGVPSRFSGSGSGTEFTLTINDLECDDAATYYCAGGYSGHIYSFGGGTEVVVK
B9: anti-apelin mAb C7 (antibody, V domains shown)
VH: B7 VH with V11A, S29N, N30S, Y31H, N53D, R54T, P59A, T75S, D77E, T95A
VL: DPVLTQTPSPVSAPVGGTVTIGCQASESVDYNNQLSWYQQKPGQAPKRLMYYVSTLDSGVPSRFKGSGSGTQFTLTISDLECDDAATYYCQGGYPYNIYPFGGGTEVVVK
B10: anti-apelin mAb C10 (antibody, V domains shown)
VH: QSLEESGGRLVTPGGSLTLTCTVSGIDLNSYAIDWVRQAPGKGLEWIGVIAPSGTTYYPTWAKGRFTISKTSTTVDLKVTGLTTEDTATYFCAAYPIDPGSNIWGPGTLVTVSS
VL: DPVLTQTPSSVSAAVGGTATIGCQSSESVDYGNQLSWYQQKPGQPPKRLAYYVSILDAGVPSRFKGSGSGTQFTLTISDLECDDAATYYCQGGYISNLYPFGGGTEVVVQ
B11: anti-apelin mAb C12 (antibody, V domains shown)
VH: QSLEESGGRLVTPGGSLTLTCTVSGIDLSSYAIDWVRQAPGKGLEWIGVIAPSSTTYYPTWAKGRFTISKTSSTTVDLKVIGLTTEDTATYFCAAYPIDPGSNVWGPGTLVTVSS
VL: B10 VL with A19V, A50T
B12: anti-apelin mAb C16 (antibody, V domains shown)
VH: QSLEESGGRLVTPGGSLTLTCTVSGIDLNSYAMDWVRQAPGKGLEWIGVIAPNHYTYYPTWARGRFTISKTSTTVDLKMTRLTTEDTATYFCATYPIESGSNIWGPGTLVIVSS
VL: B10 VL with A19V, D30G, Y31M, G32N, A50M, I55T, A58S, T74S, A86G, Q110K
B13: anti-apelin mAb C11 (antibody, V domains shown)
VH: QSLEESGGRLVSPGGSLTLTCTVSGIDLSSHAMDWVRQAPGKGLEWIGVIAPNDATYYPTWARGRFTISKTSTTVGLKMTRLTTEDTATYFCAAYPIDAGANVWGPGTLVTVSS
VL: DPMLTQTASPVSAHVGGTVTINCQSSESVDYNNQLSWYQQKPGQPPKRLMYYVSTLDSGVPSRFKGSGSGTQFSLTISDLECDDAGTYYCQGGYISNLYPFGGGTEVVVK
B14: anti-apelin mAb C14 (antibody, V domains shown)
VH: B13 VH with L3P, S12T, T22K, V23I, I26V, S30N, H31Y, F66L, G76D, A99V
VL: B13 VL with H14A
B15: anti-apelin mAb C22 (antibody, V domains shown)
VH: B12 VH with S30N, R81S, S99T
VL: B6 VL with G22S, N31M, Q39H, H72Q, Y83D, A86G
B16: anti-apelin mAb C20 (antibody, V domains shown)
VH: B12 VH with S30N, M33I, Y57C, R81S, T94A, S99T
VL: B13 VL with A8P, P10S, H14A, N22S, Y31M, T71I, Q72H, D83A
B17: C13 (antibody, V domains shown)
VH: QSLEESGGRLAKPGETLTLTCTVSGIDLNSHAVDWVRQAPGKGLEWIGVIGPGGNTYYASWAKGRFTISKTSSTTVDLKMTSLTAEDTATFFCATYPIYSGDNIWGPGTLVTVSS
VL: DPVLTQTPPSVSAAVGGTVTINCQSSESVDNNNQLSWYQQKVGQPPKRLMYYASTLDSGVPSRFKGGGSGTHFTLTITDLECDDAATYYCQGGTATNIYPFGGGTEVVVK

Biological target: T1, Biotin-APL27-14
Test: ELISA, peptide on neutravidin plate, mAb 200 ng/ml, A405

Binder	binding
B1	no binding (tested: 200 ng/ml)
B2	no binding (tested: 200 ng/ml)
B3	no binding (tested: 200 ng/ml)
B4	no binding (tested: 200 ng/ml)
B5	no binding (tested: 200 ng/ml)
B6	no binding (tested: 200 ng/ml)
B7	no binding (tested: 200 ng/ml)
B8	no binding (tested: 200 ng/ml)
B9	no binding (tested: 200 ng/ml)
B10	no binding (tested: 200 ng/ml)
B11	no binding (tested: 200 ng/ml)
B12	no binding (tested: 200 ng/ml)
B13	no binding (tested: 200 ng/ml)
B14	no binding (tested: 200 ng/ml)
B15	no binding (tested: 200 ng/ml)
B16	no binding (tested: 200 ng/ml)
B17	no binding (tested: 200 ng/ml)
